These are yes or no findings as the source states them, for the method shown. In cells and extracts the contact can be indirect. These calls come from enrichment with a bait or labelling near it, and not all partners need be listed.
B1: MKRN2, endogenous (protein, UniProt Q9H000 1-416)
chain: MSTKQITCRYFMHGVCREGSQCLFSHDLANSKPSTICKYYQKGYCAYGTRCRYDHTRPSAAAGGAVGTMAHSVPSPAFHSPHPPSEVTASIVKTNSHEPGKREKRTLVLRDRNLSGMAERKTQPSMVSNPGSCSDPQPSPEMKPHSYLDAIRSGLDDVEASSSYSNEQQLCPYAAAGECRFGDACVYLHGEVCEICRLQVLHPFDPEQRKAHEKICMLTFEHEMEKAFAFQASQDKVCSICMEVILEKASASERRFGILSNCNHTYCLSCIRQWRCAKQFENPIIKSCPECRVISEFVIPSVYWVEDQNKKNELIEAFKQGMGKKACKYFEQGKGTCPFGSKCLYRHAYPDGRLAEPEKPRKQLSSQGTVRFFNSVRLWDFIENRESRHVPNNEDVDMTELGDLFMHLSGVESSEP
B2: RNF128, endogenous (protein, UniProt Q8TEB7 39-428)
chain: AEAVWTAYLNVSWRVPHTGVNRTVWELSEEGVYGQDSPLEPVAGVLVPPDGPGALNACNPHTNFTVPTVWGSTVQVSWLALIQRGGGCTFADKIHLAYERGASGAVIFNFPGTRNEVIPMSHPGAVDIVAIMIGNLKGTKILQSIQRGIQVTMVIEVGKKHGPWVNHYSIFFVSVSFFIITAATVGYFIFYSARRLRNARAQSRKQRQLKADAKKAIGRLQLRTLKQGDKEIGPDGDSCAVCIELYKPNDLVRILTCNHIFHKTCVDPWLLEHRTCPMCKCDILKALGIEVDVEDGSVSLQVPVSNEISNSASSHEEDNRSETASSGYASVQGTDEPPLEEHVQSTNESLQLVNHEANSVAVDVIPHVDNPTFEEDETPNQETAVREIKS

Sequences of proteins named here, by UniProt entry; tags and fusion partners are left off.
UniProt P08670: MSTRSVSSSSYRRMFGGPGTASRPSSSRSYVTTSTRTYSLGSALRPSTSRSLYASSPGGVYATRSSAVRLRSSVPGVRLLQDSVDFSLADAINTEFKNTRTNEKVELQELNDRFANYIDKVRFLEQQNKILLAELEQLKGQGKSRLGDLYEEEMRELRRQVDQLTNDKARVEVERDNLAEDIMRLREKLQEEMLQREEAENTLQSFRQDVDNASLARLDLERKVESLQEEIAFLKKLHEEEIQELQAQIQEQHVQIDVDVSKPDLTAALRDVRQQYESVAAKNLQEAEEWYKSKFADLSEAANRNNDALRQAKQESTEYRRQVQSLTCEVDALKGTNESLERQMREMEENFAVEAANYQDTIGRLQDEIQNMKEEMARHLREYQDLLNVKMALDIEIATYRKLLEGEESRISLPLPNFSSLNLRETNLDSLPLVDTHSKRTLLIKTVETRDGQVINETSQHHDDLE
UniProt Q9UNE7: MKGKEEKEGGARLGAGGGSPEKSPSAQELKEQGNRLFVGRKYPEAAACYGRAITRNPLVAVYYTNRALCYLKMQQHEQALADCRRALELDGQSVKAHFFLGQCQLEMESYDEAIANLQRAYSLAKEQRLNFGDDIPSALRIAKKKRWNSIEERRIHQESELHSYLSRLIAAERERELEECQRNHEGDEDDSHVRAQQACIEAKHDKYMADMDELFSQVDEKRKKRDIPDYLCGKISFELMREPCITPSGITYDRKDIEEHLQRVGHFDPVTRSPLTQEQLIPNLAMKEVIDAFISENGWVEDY
UniProt P19474: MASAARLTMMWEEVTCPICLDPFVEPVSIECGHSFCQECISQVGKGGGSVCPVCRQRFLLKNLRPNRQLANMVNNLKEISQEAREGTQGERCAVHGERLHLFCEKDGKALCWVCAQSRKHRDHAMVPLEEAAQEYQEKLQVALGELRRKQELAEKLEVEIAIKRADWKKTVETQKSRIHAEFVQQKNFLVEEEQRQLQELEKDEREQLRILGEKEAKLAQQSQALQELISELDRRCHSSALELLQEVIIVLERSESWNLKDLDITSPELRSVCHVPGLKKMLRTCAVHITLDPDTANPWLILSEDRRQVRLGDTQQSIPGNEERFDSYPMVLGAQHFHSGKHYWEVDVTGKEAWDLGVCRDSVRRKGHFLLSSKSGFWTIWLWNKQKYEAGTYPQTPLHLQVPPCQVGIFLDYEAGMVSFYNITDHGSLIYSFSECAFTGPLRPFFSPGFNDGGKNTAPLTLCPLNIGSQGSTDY

What was measured:
Myc-Vimentin (human) = Myc-Vimentin (human) (UniProt P08670); assay: affinity purification with mass spectrometry; HCT116 transfected with empty vector or Myc-Vimentin; immunoprecipitation coupled LC-MS
Flag-TM9SF1 (human) = Flag-TM9SF1 (human) (UniProt O15321); assay: affinity purification with mass spectrometry; Flag-TM9SF1 stably overexpressing cells, RIPA lysate, anti-Flag or isotype IgG overnight at 4 °C, protein A/G agarose, SDS-PAGE, LC-MS

Molecule | binding (Myc-Vimentin (human)) | binding (Flag-TM9SF1 (human))
STUB1, endogenous (from UniProt Q9UNE7 1-303) | binds | 
Vimentin, endogenous (from UniProt P08670 1-466) |  | binds
tripartite motif containing 21 (TRIM21), endogenous (from UniProt P19474 1-475) | binds | 
B1 | binds | 
B2 | binds | 

From paper PMC12501022
